Source: article PMC7518614
Results are given in words; binding and its absence hold for the method and conditions named. Binding seen in cells or lysates may run through a third protein. These calls come from enrichment with a bait or labelling near it, and not all partners need be listed. Where a sequence is shown, tags or fusion partners need not be part of it.

Target: T1, HORMAD1 (mouse (endogenous in testis)) (UniProt Q9D5T7)
T1 sequence: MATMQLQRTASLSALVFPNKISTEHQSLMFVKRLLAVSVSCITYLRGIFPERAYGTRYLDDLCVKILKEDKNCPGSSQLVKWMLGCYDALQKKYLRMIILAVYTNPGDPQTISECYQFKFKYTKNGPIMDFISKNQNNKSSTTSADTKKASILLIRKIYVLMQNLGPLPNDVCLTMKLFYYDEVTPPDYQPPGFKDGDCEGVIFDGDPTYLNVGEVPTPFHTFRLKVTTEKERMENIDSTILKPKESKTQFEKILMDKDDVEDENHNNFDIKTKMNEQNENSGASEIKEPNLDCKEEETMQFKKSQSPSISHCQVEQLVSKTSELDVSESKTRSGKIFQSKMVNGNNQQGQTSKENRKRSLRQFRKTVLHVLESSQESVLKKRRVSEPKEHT
Assay: affinity purification with mass spectrometry; IP with rabbit anti-HORMAD1 antibody cross-linked to protein A-Dynabeads from chromatin-bound extracts (400 mM KCl) of WT mouse testes enriched for preleptotene/leptotene spermatocytes (WIN 18,446 then RA); washed with high salt extraction buffer; LC-MS/MS; proteins of the control IgG IP subtracted

B1: SYCP1 (protein, UniProt Q62209 1-993)
chain: MEKQKPFTLFVPPRLSSSQVSAVKPQTAGGDSNYFKTANKCTEGDFGVPFTMSSRENIDKDPAFQKLSILPMLEQVANSGSCHYQEGVNDSDFENSEPMSRLYSKLYKEAEKIKKWKVSIESELKQKENKLQENRKIIEAQRKAIQELQFENEKVSLKLEEEIQENKDLIKENNATIHWCNLLKETCARSAEKTNKYEYEREETRQVYVDLNSNIEKMILAFEELRVQAENARLEMHFKLKEDHEKIQHLEEEYQKEVNNKENQVSELLIQSAEKENKMKDLTFLLEESRDKANQLEEKTKLQDENLKELSEKKDHLTSELEDIKMSMQRSMSTQKALEEDLQIATKTISQLTEVKEAQMEELNKAKTTHSFVVTELKATTCTLEELLRTEQQRLEKNEDQLKLITVELQKKSNELEEMTKFKNNKEVELEELKNILAEDQKLLDEKKQVEKLAEELQEKEQELTFLLETREKEVHDLQEQVTVTKTSEQHYLKQVEEMKTELEKEKLKNTELTASCDMLLLENKKFVQEASDMALELKKHQEDIINCKKQEERLLKQIENLEEKEMHLRDELESVRKEFIQQGDEVKCKLDKSEENARSIECEVLKKEKQMKILESKCNNLKKQVENKSKNIEELHQENKTLKKKSSAEIKQLNAYEIKVSKLELELESTKQRFEEMTNNYQKEIENKKISEGKLLGEVEKAKATVDEAVKLQKEIDLRCQHKIAEMVALMEKHKHQYDKIVEERDSELGLYKNREQEQSSAKIALETELSNIRNELVSLKKQLEIEKEEKEKLKMAKENTAILKDKKDKKIQASLLESPEATSWKFDSKTTPSQNISRLSSSMDSGKSKDNRDNLRASAKSILPTTVTKEYTVKTPTKKSIYQRENKYIPTGGSNKKRKTAFEFDVNSDSSETADLLSLVSEEDVSNRLYDNNPPDSHLLVKTPKQTPLSLSTPASFMKFGSLKKMREDRWTTIAKIDRKRRLKEAEKLFS
With B1 the binding was “binds”.

B2: STAG3 (protein, UniProt O70576 1-1240)
chain: MPTLWSPSTQHHGSSSGSESSPLQKSVRRAQMALSPCSSSILPCDDRDSQGTAEWDSPSTNEDSDFEDSLRRNVKKRAAKQPPKAVPAAKHRKKQSRIVSSGNGKNESVPSTNYLFDAVKAARSCMQSLVDEWLDNYKQDENAGFLELINFFIRACGCKSTVTPEMFKTMSNSEIIQHLTEEFNEDSGDYPLTAPGPSWKKFQGSFCEFVKTLVYQCQYSLLYDGFPMDDLISLLIGLSDSQVRAFRHTSTLAAMKLMTSLVKVALQLSLHKDNNQRQYEAERNKGPEQRAPERLESLLEKRKEFQENQEDIEGMMNAIFRGVFVHRYRDILPEIRAICIEEIGYWMQSYSTSFLNDSYLKYIGWTLHDKHKEVRLKCVKALAGLYSNQELSLRMELFTNRFKDRMVSMVMDRECEVAVEAIRLLTLILKNMEGVLTSADCEKIYSIVYISNRAMASSAGEFVYWKIFHPECGAKAVSDRERRRSPQAQKTFIYLLLAFFMESEHHNHAAYLVDSLWDCAGSYLKDWESLTNLLLQKDQNLGDMQERMLIEILVSSARQAAEGHPPVGRITGKKSLTAKERKLQAYDKMKLAEHLIPLLPQLLAKFSADAENVAPLLQLLSYFDLSIYCTQRLEKHLELLLQQLQEVVVKHVEPEVLEAAAHALYLLCKPEFTFFSRVDFARSQLVDFLTDRFQQELDDLMQSSFLDEDEVYSLTATLKRLSAFYNAHDLTRWEISEPCSRLLRKAVDTGEVPHQVILPALTLVYFSILWTVTHISESTSHKQLMSLKKRMVAFCELCQSCLSDVDPEIQEQAFVLLSDLLLIFSPQMIVGGRDFLRPLVFFPEATLQSELASFLMDHVFLQPGELGNGQSQEDHVQIELLHQRRRLLAGFCKLLLYGVLELDAASDVFKHYNKFYEDYGDIIKETLTRARQIDRCQCSRILLLSLKQLYTELIQEQGPQGLTELPAFIEMRDLARRFALSFGPQQLHNRDLVVMLHKEGIKFSLSELPPAGSSHEPPNLAFLELLSEFSPRLFHQDKRLLLSYLEKCLQRVSKAPNHPWGPVTTYCHSLHPLEITAEASPRGPPHSKKRCVEGPCRPQEEESSSQEESLQLNSGPTTPTLTSTAVKRKQSLRTVGKKQKGRPGPGPGPGPELICSQQLLGTQRLKMSSAPCFQIRCDPSGSGLGKQLTRLSLMEEDEEEELRLLDEEWQRGDKMLHSPSSPSEHGLDLLDTTELNMEDF
B2 was tested, and the binding was “binds”.

B3: SMC1β (protein, UniProt Q920F6 1-1248)
chain: MGHLELLLVENFKSWRGRQVIGPFKRFTCIIGPNGSGKSNVMDALSFVMGEKTTNLRVKNIQELIHGAHTGKPVSSSASVTIIYIEDSGEEKTFTRIIRGGCSEYHFGDKPVSRSVYVAQLENIGIIVKAQNCLVFQGTVESISMKKPKERTQFFEEISTSGEFIGEYEAKKKKLQKAEEDAQFHFNVKKNVAAERKHAKIEKEEAEHYQNLLEELKINKIQLMLFQLYYNEEKINVLNTELEQMDGNLSVVKDTLSHHENIFKAKKKDYGMLTRQLQQTAKELKSVEAILNQKRPQYIKAKENTSHHLKKLDLSKKLITDNEKQCSKQEDGIRALVAELADLDRAWKSFEKQMEEKILQKGRDIELENSQLDRYKLLKEQVRRKVGIMTQQLEKLQWEQKAEKERLAFEKRRHGDTQGNLKQIKEQIEEHKKRIEKLEEYTKTCMDCLEDKKQQEEALKKEIENTKSRMSEVNEELSLIRNELQNAGIDNHEGKRQQKRAEVLEHLKRLYPDSVFGRLLDLCHPIHKKYQLAVTKLFGRYMVAIVVASEKIAKDCIRFLKAERAEPETFLALDYLDIKPINERLREIKGCKMMIDVIKTQFPQLKKVIQFVCGNGLVCETVEEARHIAFGGPERRKAVALDGTLFLKSGVISGGSSDLKHKALCWDEKELHNLRDKRSQLVQELKELMKTLRKETDLKQIQTLVQGTNTRLKYSQNELEMIKKKHLATFYREQSQLQSELLNIDSQCTMLSEGINKQQQKIEEFQDKIDEVEDDIFQDFCEEIGVENIREFENKHVKQQQENDQKRLEFEKQKTRLNIQLEYSRNQLKKKLNNIDTLKTTIQKGKEDIDNLKKTEEECLKIVEELMVKQEQIKEVLATQSSNIEKIHIQIEEERKKVLAVDREVGKLQKEVVIIQGSLEQKLLEKHNLLLDCKVQDIDISLVLGSLEDIIEMELTETESTQATADIYEKEASIQIDYSPLREDLKALQSDKEVEAHLTLLLQQVASQENTLLKTTAPNLRAQENLKTVRDKFQESADVFEASRKEARICRQEFEQVKRRRYDAFSQCFEHISVSIDQIYKKLCRNNSAQAFLSPENPEEPYLDGISYNCVAPGKRFMPMDNLSGGEKCVAALALLFAVHSFRPAPFFVLDEVDAALDNTNIGKVSSYIKEQSQEQFQMIIISLKEEFYSKADALIGVYPEHNECMFSHVLTLDLSKYPDTEDQEGSRSHRKPRVPRVSMSPKSPQSR
For B3, the binding was “binds”.

B4: PDS5A (protein, UniProt Q6A026 1-1332)
chain: MDFTQPKPATALCGVVSADGKIAYPPGVKEITDKITTDEMIKRLKMVVKTFMDMDQDSEDEKQQYLPLALHLASEFFLRNPNKDVRLLVACCLADIFRIYAPEAPYTSHDKLKDIFLFITRQLKGLEDTKSPQFNRYFYLLENLAWVKSYNICFELEDCNEIFIQLFRTLFSVINNSHNTKVQMHMLDLMSSIIMEGDGVTQELLDSILINLIPAHKNLNKQSFDLAKVLLKRTVQTIEACIANFFNQVLVLGRSSVSDLSEHVFDLIQELFAIDPQLLLSVMPQLEFKLKSNDGEERLAVVRLLAKLFGSKDSDLATQNRPLWQCFLGRFNDIHVPVRLESVKFASHCLMNHPDLAKDLTEYLKVRSHDPEEAIRHDVIVTIITAAKRDLALVNDQLLGFVRERTLDKRWRVRKEAMMGLAQLYKKYCLHGEAGKEAAEKVSWIKDKLLHIYYQNSIDDKLLVEKIFAQYLVPHNLETEERMKCLYYLYASLDPNAVKALNEMWKCQNMLRSHVRELLDLHKQPTSEANCSAMFGKLMTIAKNLPDPGKAQDFVKKFNQVLGDDEKLRSQLELLISPTCSCKQADVCVREIARKLANPKQPTNPFLEMVKFLLERIAPVHIDSEAISALVKLMNKSIEGTADDEEEGVSPDSAIRSGLELLKVLSFTHPTSFHSAETYESLLQCLRMEDDKVAEAAIQIFRNTGHKIETDLPQIRSTLIPILHQKAKRGTPHQAKQAVHCIHAIFSNKEVQLAQIFEPLSRSLNADVPEQLITPLVSLGHISMLAPDQFASPMKSVVANFIVKDLLMNDRSTGEKNGKLWSPDEEVSPEVLAKVYLLRLLVRWLLGMKNNQSKSANSTLRLLSAMLVSEGDLTEQKRISKSDMSRLRLAAGSAIMKLAQEPCYHEIITPEQFQLCALVINDECYQVRQIFAQKLHKALVKLLLPLEYMAIFALCAKDPVKERRAHARQCLLKNISIRREYIKQNPMATEKLLSLLPEYVVPYMIHLLAHDPDFTRSQDVDQLRDIKECLWFMLEVLMTKNENNSHAFMKKMAENIKLTRDAQSPDESKTNEKLYTVCDVALCVINSKSALCNADSPKDPVLPMKFFTQPEKDFCNDKSYISEETRVLLLTGKPKPTGVLGTVNKPLSATGRKPYVRSAGTETGSNINANSELSPSAGSRSREQSSEASETGVSENEENPVRIISVTPVKNIDTVKNKEINSDQSTQGNISSDRGKKRIVTAAGAENIQKPDEKVDESGPPAPSKPRRGRRPKSESQGNATKNDDLNKPVSKGRKRAAGSQESLEAGNAKAPKLQDGAKKAVPAERQIDLQR
B4 was tested, and the binding was “binds”.
